{"source": "paper PMC4863600", "binders": {"B1": {"name": "Chaperonin groEL (protein, UniProt Q9RWQ9 1-548)", "chain": "MAKQLVFDESARRSLERGVNAVANAVKVTLGPRGRNVVIEKKFGSPTITKDGVTVAKEVELEDKLENIGAQLLKEVASKTNDITGDGTTTATVLGQAIVKEGLRNVAAGANPLALKRGIDKAVAVAIEEIKKLAVSVEDSEAIKKVAGISANDETVGQEIASAMDKVGKEGVITIEESKGFDTEVDVVEGMQFDKGFINPYFITNPEKMEAVLEDAYILINEKKISNLKDMLPVLEKVAQTGRPLLIIAEDVEGEALATLVVNKLRGTLNIAAVKAPGFGDRRKEMLRDIAAVTGGEVVSEDLGHKLENVGMEMLGRAARIRITKDETTIVDGKGEQAQIDARVNAIKGELDSTDSDYAREKLQERLAKLSGGVAVIRVGAATETELKEKKHRYEDALSTARSAVEEGIVAGGGTTLLRVIPAVRKAAESLTGDEATGARILIRALEEPARQIAANAGEEGSVIVNAVVGSDKARYGFNAATGEYVEDMVAAGIVDPAKVTRTALQNAASIGALILTTEAIVSDKPEKAAPAMPQGGGDMGGMGGMDF"}, "B2": {"name": "DnaK (protein, UniProt Q9RY23 1-628)", "chain": "MAKAVGIDLGTTNSVIAVMEGGRPEVIVNAEGGRTTPSVVAYKGDEILVGQIARRQAALNPAATLFEVKRFIGRRWDEVKEEAARSPFTVKEGPSGSVRIEVNGKDLAPEQVSAEVLRKLVSDASAKLGNKITDAVITVPAYFDNSQREATRQAGEIAGLNVLRVINEPTAAALAYGLERKGNETVLVFDLGGGTFDVTILELGDGVFEVKSTAGDTHLGGADFDYRIVDWLAGEFQKEHNFDLRKDKQALQRLIEAAEKAKIDLSNASETSISLPFITFDPETRTPMHLERSLSRAKFEELTADLLRRVRQPVEQALSDAKLSAGDINEVILVGGSTRIPAVKRIVQDLVGKTPNESVNPDEAVALGAAVQAGIIQGDSSLGDIVLVDVTPLTLGVEVKGGMIAPMITRNTTVPAKKTEIYTTAENNQPGVEINVLQGERPMAADNKSLGRFKLEGIPPMPAGRAQIEVTFDIDANGILHVTAKEKTSGKESSITIENTTTLDKTDVERMVQEAEQNAAADKQRKEKVEKRNNLDSLRVQAVQQLEEQEGAAQDAKDRLKAAADEAEEAVRSEDDSKIADAQKKLEEELRSFMTANQASTQGQPEGTQAQANKADDDVIDADFKPAE"}, "B3": {"name": "SSB (protein, UniProt Q9RY51 1-301)", "chain": "MARGMNHVYLIGALARDPELRYTGNGMAVFEATVAGEDRVIGNDGRERNLPWYHRVSILGKPAEWQAERNLKGGDAVVVEGTLEYRQWEAPEGGKRSAVNVKALRMEQLGTQPELIQDAGGGVRMSGAMNEVLVLGNVTRDPEIRYTPAGDAVLSLSIAVNENYQDRQGQRQEKVHYIDATLWRDLAENMKELRKGDPVMIMGRLVNEGWTDKDGNKRNSTRVEATRVEALARGAGNANSGYAAATPAAPRTQTASSAARPTSGGYQSQPSRAANTGSRSGGLDIDQGLDDFPPEEDDLPF"}, "B4": {"name": "DNA gyrase subunit A (protein, UniProt Q9RT53 1-812)", "chain": "MTGIQPVDITSEVKTNFINYAMNVIVDRALPDVRDGMKPVQRRIMYAMLQEGLASNVKHAKSASVVGEVMKRYHPHGDSSIYDAMVRLGQWWNMRYTLVDPQGNFGSMDGDMAAAMRYTEARMTKVAEEILADLEKETVDLKPNYDETTTEPTVLPSAVPNLLINGASGIAVGMATNIPPHNLTEISNGLLALIDNPAITLDEMMTHVQGPDFPTGGRIAKVGIREAYATGHAGLKVRGKARIEEGKNGRTQIIISEIPYQLNKTNLLQTISAMYKAGKIPDIGALRDESDRKEPVRIVIELKRSAAGMGTLVLNQLYKYTQLQSSYTVMNLSIVNGEPRVLPLIDTMRYFLDHRRDVVTRRTVYDLRKAKERAHVLEGLLKALDHIDEVISLIRASNTGAEARDGLMARFGLSEIQAQAILDMRLQRLVGLEREKLQGEYDELQKTITRLESILGDEKLLWREIKKEIRDIRDRYGDARRSVITELEEDINKEDLIAVEDMVITMTRAGYVKRTNLTAYREQKRGGRGSSGGKLREEDANTGVFVGSTHDYLLFFTDQGRVFHEKIYDLPEAGRDAKGTHIRNLLPGLRDDENIASVLSVSGFDQPGSFIFATKSGVIKKSLITDYANITSAGLIAINLQPGDELIGVDIQQDGDDVVLATKNGQAMRFEATLVRDTGRATQGVIGIRLREGDEVVSMALVPGNDEEGELLAISECGLGKRTKVSDYPSKGRGGLGVITLDVTDKTGKLVTLAHVAGNEELMVLTEKGTVIRTRVEEVRVTGRNAQGVKVINIGDKDRVIDAFPIRKEDEL"}, "B5": {"name": "DNA polymerase I (protein, UniProt P52027 1-956)", "chain": "MVFCGDGGLSCESIDFALCCLRGRSGNYVQSRILPMADASPDPSKPDTLVLIDGHALAFRSYFALPPLNNSKGEMTHAIVGFMKLLLRLARQKSNQVIVVFDPPVKTFRHEQYEGYKSGRAQTPEDLPGQINRIRALVDALGFPRLEEPGYEADDVIASLTRMAEGKGYEVRIVTSDRDAYQLLDEHVKVIANDFSLIGPAQVEEKYGVTVRQWVDYRALTGDASDNIPGAKGIGPKTAAKLLQEYGTLEKVYEAAHAGTLKPDGTRKKLLDSEENVKFSHDLSCMVTDLPLDIEFGVRRLPDNPLVTEDLLTELELHSLRPMILGLNGPEQDGHAPDDLLEREHAQTPEEDEAAALPAFSAPELAEWQTPAEGAVWGYVLSREDDLTAALLAAATFEDGVARPAPVSEPDEWAQAEAPENLFGELLPSDKPLTKKEQKALEKAQKDAEKARAKLREQFPATVDEAEFVGQRTVTAAAAKALAAHLSVRGTVVEPGDDPLLYAYLLDPANTNMPVVAKRYLDREWPADAPTRAAITGHLLRELPPLLDDARRKMYDEMEKPLSGVLGRMEVRGVQVDSDFLQTLSIQAGVRLADLESQIHEYAGEEFHIRSPKQLETVLYDKLELASSKKTKLTGQRSTAVSALEPLRDAHPIIPLVLEFRELDKLRGTYLDPIPNLVNPHTGRLHTTFAQTAVATGRLSSLNPNLQNIPIRSELGREIRKGFIAEDGFTLIAADYSQIELRLLAHIADDPLMQQAFVEGADIHRRTAAQVLGLDEATVDANQRRAAKTVNFGVLYGMSAHRLSNDLGIPYAEAATFIEIYFATYPGIRRYINHTLDFGRTHGYVETLYGRRRYVPGLSSRNRVQREAEERLAYNMPIQGTAADIMKLAMVQLDPQLDAIGARMLLQVHDELLIEAPLDKAEQVAALTKKVMENVVQLKVPLAVEVGTGPNWFDTK"}, "B6": {"name": "30S ribosomal protein S1 (protein, UniProt Q9RSY6 1-629)", "chain": "MQHRYQARPGAFQREGFRPGGQEFMEDNTQTPAVNGGTQPTTGDTSTQQAEGTQLDQETQSHQGALNAQTEQAQTEVSQGEQARQQEQAAKTQAQEERDYPEMTMEDILAAEAQEPQSVTRGDIVDGTVVFIGQEGIAVDIGAKVEGVIPLNQLGEEPVTLEQAQEMYKPGDAIEAYVVRVDLPNSQIVLSKKRAEQDKGWRVLERMQEADEAFEVEVLEKVRGGLVAQVEGIRAFLPASQVDTRRVNDLDPYVGKPLMVKLIELNRKRNRVIISHRAIMEAEKAKAREATVGQLEPGAVFEGEVVEITDFGVFVNLGGIDGLVHRSELTYGRFNHPRDVVKVGDKVQVQVIDVDEGRERINLSMKALTQDPWEGATERYHIGQRVKGKVTNLTNFGAFIELEPGLEGLVHVSEMSWTKRVRHPNEVMKEGDEVEAVILRIDPRERRISLGIRQTTDDPWSALPDRYPPGTPVKGKITGMTDFGVFMEIEEGIEGLIHISELDTQRVNNPADLFKKGDEIEAVILNIDPVEQRASLSRRRFLGGGPVPQRGEGGQRDYVSQGGGSRRDSTFGGGQRGGRGGRGGADYAYNAKDAQQGGKISTKLGDVYADLFAQFGLGNDKKDEGSSEE"}}, "target": "T1, PprA::HA fusion protein (D. radiodurans) (UniProt O32504)", "T1 sequence": "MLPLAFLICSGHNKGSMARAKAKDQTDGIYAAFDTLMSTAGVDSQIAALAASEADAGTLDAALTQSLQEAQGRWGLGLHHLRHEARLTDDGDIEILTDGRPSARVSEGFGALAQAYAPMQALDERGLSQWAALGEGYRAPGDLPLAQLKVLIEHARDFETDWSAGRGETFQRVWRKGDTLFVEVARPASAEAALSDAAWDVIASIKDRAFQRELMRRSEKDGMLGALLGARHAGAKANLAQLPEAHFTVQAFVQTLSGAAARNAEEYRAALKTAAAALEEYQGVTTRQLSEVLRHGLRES", "assay": "affinity purification with mass spectrometry; anti-HA immunoprecipitation (protein G magnetic beads) of PprA::HA from extracts of D. radiodurans GY14615 exposed to 3.8 kGy gamma radiation and recovered 110 min; lysis buffer A (50 mM Tris pH 7.5, 100 mM NaCl, 5 mM MgCl2, 1 mM DTT, 0.5% Triton X-100), 10°C; shotgun MS-MS; compared with nonirradiated cells and with irradiated ΔpprA cells", "note": "These are yes or no findings as the source states them, for the method shown. In cells and extracts the contact can be indirect. A yes stands for co-enrichment or nearness to the bait. Other partners may have been found. A no says only that the protein was not detected with the bait. Tags and fused reporters may be left off the sequences shown.", "data": [{"binder": "B1", "values": [{"measurement": "binding", "value": "binds"}]}, {"binder": "B2", "values": [{"measurement": "binding", "value": "no binding"}]}, {"binder": "B3", "values": [{"measurement": "binding", "value": "no binding"}]}, {"binder": "B4", "values": [{"measurement": "binding", "value": "binds"}]}, {"binder": "B5", "values": [{"measurement": "binding", "value": "no binding"}]}, {"binder": "B6", "values": [{"measurement": "binding", "value": "binds"}]}]}
